Measurements as given in article PMC7923384.
No constants are given. Whether binding was seen depends on the method and setting. Binding seen in cells or lysates may run through a third protein. Some results given as binding are weak or reduced against the parent protein; the word gives no strength. For some assays here: Sequences can lack the tags named with a protein.

T1: Flag-ZMYND8 (full length) (UniProt Q9ULU4)
T1 sequence: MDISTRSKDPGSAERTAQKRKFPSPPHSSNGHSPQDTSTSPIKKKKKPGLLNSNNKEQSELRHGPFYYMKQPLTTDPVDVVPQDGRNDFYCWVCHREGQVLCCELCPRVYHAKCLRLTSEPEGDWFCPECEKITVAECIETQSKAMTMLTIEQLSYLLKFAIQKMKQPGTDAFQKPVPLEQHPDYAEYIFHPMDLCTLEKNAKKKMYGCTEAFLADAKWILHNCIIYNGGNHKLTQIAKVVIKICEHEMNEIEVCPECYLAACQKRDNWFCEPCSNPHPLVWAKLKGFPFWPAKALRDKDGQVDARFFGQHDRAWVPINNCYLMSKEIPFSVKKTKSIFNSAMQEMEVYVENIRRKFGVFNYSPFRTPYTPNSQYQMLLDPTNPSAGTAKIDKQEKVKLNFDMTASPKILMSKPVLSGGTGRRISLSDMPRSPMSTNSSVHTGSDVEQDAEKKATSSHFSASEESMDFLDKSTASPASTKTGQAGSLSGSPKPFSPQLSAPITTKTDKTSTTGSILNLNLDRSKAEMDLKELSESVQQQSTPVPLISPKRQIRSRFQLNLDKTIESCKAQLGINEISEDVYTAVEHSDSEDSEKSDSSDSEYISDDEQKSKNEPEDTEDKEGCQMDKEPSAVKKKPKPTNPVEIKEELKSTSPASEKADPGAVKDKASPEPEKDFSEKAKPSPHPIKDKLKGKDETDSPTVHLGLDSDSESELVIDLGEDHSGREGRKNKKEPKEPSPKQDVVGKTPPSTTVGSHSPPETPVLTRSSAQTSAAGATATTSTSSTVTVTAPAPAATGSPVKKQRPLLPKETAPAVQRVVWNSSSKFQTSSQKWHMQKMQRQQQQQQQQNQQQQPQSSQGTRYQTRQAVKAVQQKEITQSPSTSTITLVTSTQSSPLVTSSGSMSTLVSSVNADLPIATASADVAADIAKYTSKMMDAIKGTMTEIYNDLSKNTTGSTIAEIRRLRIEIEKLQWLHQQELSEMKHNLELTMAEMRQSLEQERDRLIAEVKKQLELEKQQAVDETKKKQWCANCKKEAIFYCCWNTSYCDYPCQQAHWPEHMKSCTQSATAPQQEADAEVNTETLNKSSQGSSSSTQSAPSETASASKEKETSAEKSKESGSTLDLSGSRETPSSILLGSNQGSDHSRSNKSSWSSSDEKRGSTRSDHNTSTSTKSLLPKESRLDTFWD

B1: FOXM1 (endogenous) (protein, UniProt Q08050 1-763)
chain: MKTSPRRPLILKRRRLPLPVQNAPSETSEEEPKRSPAQQESNQAEASKEVAESNSCKFPAGIKIINHPTMPNTQVVAIPNNANIHSIITALTAKGKESGSSGPNKFILISCGGAPTQPPGLRPQTQTSYDAKRTEVTLETLGPKPAARDVNLPRPPGALCEQKRETCADGEAAGCTINNSLSNIQWLRKMSSDGLGSRSIKQEMEEKENCHLEQRQVKVEEPSRPSASWQNSVSERPPYSYMAMIQFAINSTERKRMTLKDIYTWIEDHFPYFKHIAKPGWKNSIRHNLSLHDMFVRETSANGKVSFWTIHPSANRYLTLDQVFKPLDPGSPQLPEHLESQQKRPNPELRRNMTIKTELPLGARRKMKPLLPRVSSYLVPIQFPVNQSLVLQPSVKVPLPLAASLMSSELARHSKRVRIAPKVLLAEEGIAPLSSAGPGKEEKLLFGEGFSPLLPVQTIKEEEIQPGEEMPHLARPIKVESPPLEEWPSPAPSFKEESSHSWEDSSQSPTPRPKKSYSGLRSPTRCVSEMLVIQHRERRERSRSRRKQHLLPPCVDEPELLFSEGPSTSRWAAELPFPADSSDPASQLSYSQEVGGPFKTPIKETLPISSTPSKSVLPRTPESWRLTPPAKVGGLDFSPVQTSQGASDPLPDPLGLMDLSTTPLQSAPPLESPQRLLSSEPLDLISVPFGNSSPSDIDVPKPGSPEPQVSGLAANRSLTEGLVLDTMNDSLSKILLDISFPGLDEDPLGPDNINWSQFIPELQ
B2: FOXM1 in 293T cells (protein, UniProt Q08050 1-763)
chain: MKTSPRRPLILKRRRLPLPVQNAPSETSEEEPKRSPAQQESNQAEASKEVAESNSCKFPAGIKIINHPTMPNTQVVAIPNNANIHSIITALTAKGKESGSSGPNKFILISCGGAPTQPPGLRPQTQTSYDAKRTEVTLETLGPKPAARDVNLPRPPGALCEQKRETCADGEAAGCTINNSLSNIQWLRKMSSDGLGSRSIKQEMEEKENCHLEQRQVKVEEPSRPSASWQNSVSERPPYSYMAMIQFAINSTERKRMTLKDIYTWIEDHFPYFKHIAKPGWKNSIRHNLSLHDMFVRETSANGKVSFWTIHPSANRYLTLDQVFKPLDPGSPQLPEHLESQQKRPNPELRRNMTIKTELPLGARRKMKPLLPRVSSYLVPIQFPVNQSLVLQPSVKVPLPLAASLMSSELARHSKRVRIAPKVLLAEEGIAPLSSAGPGKEEKLLFGEGFSPLLPVQTIKEEEIQPGEEMPHLARPIKVESPPLEEWPSPAPSFKEESSHSWEDSSQSPTPRPKKSYSGLRSPTRCVSEMLVIQHRERRERSRSRRKQHLLPPCVDEPELLFSEGPSTSRWAAELPFPADSSDPASQLSYSQEVGGPFKTPIKETLPISSTPSKSVLPRTPESWRLTPPAKVGGLDFSPVQTSQGASDPLPDPLGLMDLSTTPLQSAPPLESPQRLLSSEPLDLISVPFGNSSPSDIDVPKPGSPEPQVSGLAANRSLTEGLVLDTMNDSLSKILLDISFPGLDEDPLGPDNINWSQFIPELQ

Tests used:
[1] = molecular target: ZMYND8 (endogenous) (human (endogenous in 786-O and A498)) (UniProt Q9ULU4); assay: co-IP; endogenous proteins from 786-O and A498 cell lysates, Western blot; also with lambda protein phosphatase on the lysate, sgZMYND8, sgCDK1, RO-3306 (10 uM, 24 h) or roscovitine
[2] = molecular target: T1, Flag-ZMYND8 (full length); assay: co-IP; tagged proteins (Flag-ZMYND8 and its truncation mutants, Myc-EZH2 WT or mutants) expressed by transfection in 293T cells, some with V5-CDK1 co-expressed; immunoprecipitation from lysate, Western blot; both orientations done

Binder	binding [1]	binding [2]
B1	binds	
B2		binds
